# According to the supplement of paper PMC8728848:
# This is one part of the list.
# B1: PX9961K-bvu-480-28-480 (Bacteroides vulgatus) (protein)
# chain: NKIPTTMAFRTVTDVDNAVNGLYDLMSGSGYYGAAMFAYGDMKGDDMQSSEESGVCNTCYMFNHRPNSLNAGSLWGRPFYILREAWNILNAIAEGKIESGDEKKLNALKGETMAVIALCQFDLTRCFGYPYTKDKGASLGAPLIDHLVGTYENPPRSTVAQAYDFIIETLEEAVTLMSEEKNNGRMNKYAARALLARIYLYHDDNRKAFDLADQLIKDADTSGSYALYPHEKYVAAWSVEAKFGSESFFEIANSVDDTPGRDSWGYLLNWYGYQKGFVTQKYAEQMLADPGDVRGHLLEENKYAGKTVWWLYKLRGTDLKTAPLECNNVVLRLSEVYLIAAEAGCKLGGDAAVQGLGYLNEIVKRGNPDNEVTMADYTLDRVLDERSKELVGEGHRFFDLLRNGKTIVRKGGYHLPSVDEEVDWDFYKCVLPIPEDQFIFSPEMEQNPGYPKN
# Legend:
# Test in all cases: glycan array binding signal (z-score within array); higher = stronger binding
# Details in all cases: glycan notation: IUPAC condensed, linker removed
# Neu5Ac(a2-3)GalNAc = molecular target: Neu5Ac(a2-3)GalNAc
# Outline: (§1)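 The Consortium for Functional Glycomics database supplied 3228 glycan arrays, of which those lacking an available protein sequence were dropped. The binding signal, a within-array Z-score, was averaged across arrays of the same protein sequence and across linkers. Negative scores can be read as non-binding.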
# [1] = molecular target: Neu5Ac(a2-3)GalNAc(b1-4)GlcNAc
# Outline: as §1
# [2] = molecular target: Neu5Ac(a2-3)[GalNAc(b1-4)]Gal(b1-4)Glc
# Outline: as §1
# [3] = molecular target: Neu5Ac(a2-3)[GalNAc(b1-4)]Gal(b1-4)GlcNAc
# Outline: as §1
# [4] = molecular target: Neu5Ac(a2-3)[GalNAc(b1-4)]Gal(b1-4)GlcNAc(b1-3)GalNAc
# Outline: as §1
# [5] = molecular target: Neu5Ac(a2-3)[Neu5Ac(a2-6)]GalNAc
# Outline: as §1
# Neu5Ac(a2-6)Gal = molecular target: Neu5Ac(a2-6)Gal
# Outline: as §1
# [6] = molecular target: Neu5Ac(a2-6)Gal(b1-3)GlcNAc(b1-3)[Gal(b1-4)GlcNAc(b1-6)]Gal(b1-4)Glc
# Outline: as §1
# Neu5Ac(a2-6)Gal(b1-4)Glc = molecular target: Neu5Ac(a2-6)Gal(b1-4)Glc
# Outline: as §1
# [7] = molecular target: Neu5Ac(a2-6)Gal(b1-4)GlcNAc
# Outline: as §1
# [8] = molecular target: Neu5Ac(a2-6)Gal(b1-4)GlcNAc(b1-2)Man
# Outline: as §1
# [9] = molecular target: Neu5Ac(a2-6)Gal(b1-4)GlcNAc(b1-2)Man(a1-3)Man(b1-4)GlcNAc(b1-4)GlcNAc
# Outline: as §1
# [10] = molecular target: Neu5Ac(a2-6)Gal(b1-4)GlcNAc(b1-2)Man(a1-3)[Gal(b1-4)GlcNAc(b1-2)Man(a1-6)]Man(b1-4)GlcNAc(b1-4)GlcNAc
# Outline: as §1
# [11] = molecular target: Neu5Ac(a2-6)Gal(b1-4)GlcNAc(b1-2)Man(a1-3)[GlcNAc(b1-2)Man(a1-6)]Man(b1-4)GlcNAc(b1-4)GlcNAc
# Outline: as §1
# [12] = molecular target: Neu5Ac(a2-6)Gal(b1-4)GlcNAc(b1-2)Man(a1-3)[GlcNAc(b1-4)][Neu5Ac(a2-6)Gal(b1-4)GlcNAc(b1-2)Man(a1-6)]Man(b1-4)GlcNAc(b1-4)GlcNAc
# Outline: as §1
# [13] = molecular target: Neu5Ac(a2-6)Gal(b1-4)GlcNAc(b1-2)Man(a1-3)[Man(a1-6)]Man(b1-4)GlcNAc(b1-4)GlcNAc
# Outline: as §1
# [14] = molecular target: Neu5Ac(a2-6)Gal(b1-4)GlcNAc(b1-2)Man(a1-3)[Neu5Ac(a2-3)Gal(b1-4)GlcNAc(b1-2)Man(a1-6)]Man(b1-4)GlcNAc(b1-4)GlcNAc
# Outline: as §1
# [15] = molecular target: Neu5Ac(a2-6)Gal(b1-4)GlcNAc(b1-2)Man(a1-3)[Neu5Ac(a2-6)Gal(b1-4)GlcNAc(b1-2)Man(a1-6)]Man(b1-4)GlcNAc(b1-4)GlcNAc
# Outline: as §1
# [16] = molecular target: Neu5Ac(a2-6)Gal(b1-4)GlcNAc(b1-2)Man(a1-3)[Neu5Ac(a2-6)Gal(b1-4)GlcNAc(b1-2)Man(a1-6)]Man(b1-4)GlcNAc(b1-4)[Fuc(a1-6)]GlcNAc
# Outline: as §1
# [17] = molecular target: Neu5Ac(a2-6)Gal(b1-4)GlcNAc(b1-2)Man(a1-6)Man(b1-4)GlcNAc(b1-4)GlcNAc
# Outline: as §1
# [18] = molecular target: Neu5Ac(a2-6)Gal(b1-4)GlcNAc(b1-2)Man(a1-6)[Gal(b1-4)GlcNAc(b1-2)Man(a1-3)]Man(b1-4)GlcNAc(b1-4)GlcNAc
# Outline: as §1
# [19] = molecular target: Neu5Ac(a2-6)Gal(b1-4)GlcNAc(b1-2)Man(a1-6)[GlcNAc(b1-2)Man(a1-3)]Man(b1-4)GlcNAc(b1-4)GlcNAc
# Outline: as §1
# [20] = molecular target: Neu5Ac(a2-6)Gal(b1-4)GlcNAc(b1-2)Man(a1-6)[Man(a1-3)]Man(b1-4)GlcNAc(b1-4)GlcNAc
# Outline: as §1
# [21] = molecular target: Neu5Ac(a2-6)Gal(b1-4)GlcNAc(b1-2)[Neu5Ac(a2-6)Gal(b1-4)GlcNAc(b1-4)]Man(a1-3)[GlcNAc(b1-4)][Neu5Ac(a2-6)Gal(b1-4)GlcNAc(b1-2)[Neu5Ac(a2-6)Gal(b1-4)GlcNAc(b1-6)]Man(a1-6)]Man(b1-4)GlcNAc(b1-4)GlcNAc
# Outline: as §1
# [22] = molecular target: Neu5Ac(a2-6)Gal(b1-4)GlcNAc(b1-2)[Neu5Ac(a2-6)Gal(b1-4)GlcNAc(b1-4)]Man(a1-3)[GlcNAc(b1-4)][Neu5Ac(a2-6)Gal(b1-4)GlcNAc(b1-4)Man(a1-6)]Man(b1-4)GlcNAc(b1-4)GlcNAc
# Outline: as §1
# [23] = molecular target: Neu5Ac(a2-6)Gal(b1-4)GlcNAc(b1-2)[Neu5Ac(a2-6)Gal(b1-4)GlcNAc(b1-6)]Man(a1-6)[Neu5Ac(a2-6)Gal(b1-4)GlcNAc(b1-2)Man(a1-3)][GlcNAc(b1-4)]Man(b1-4)GlcNAc(b1-4)GlcNAc
# Outline: as §1
# [24] = molecular target: Neu5Ac(a2-6)Gal(b1-4)GlcNAc(b1-3)Gal(b1-3)GlcNAc
# Outline: as §1
# [25] = molecular target: Neu5Ac(a2-6)Gal(b1-4)GlcNAc(b1-3)Gal(b1-4)GlcNAc
# Outline: as §1
# [26] = molecular target: Neu5Ac(a2-6)Gal(b1-4)GlcNAc(b1-3)Gal(b1-4)GlcNAc(b1-2)Man(a1-3)[Neu5Ac(a2-6)Gal(b1-4)GlcNAc(b1-3)Gal(b1-4)GlcNAc(b1-2)Man(a1-6)]GalNAc
# Outline: as §1
# [27] = molecular target: Neu5Ac(a2-6)Gal(b1-4)GlcNAc(b1-3)Gal(b1-4)GlcNAc(b1-3)Gal(b1-4)GlcNAc
# Outline: as §1
# [28] = molecular target: Neu5Ac(a2-6)Gal(b1-4)GlcNAc(b1-3)Gal(b1-4)GlcNAc(b1-3)Gal(b1-4)GlcNAc(b1-2)Man(a1-3)[Neu5Ac(a2-6)Gal(b1-4)GlcNAc(b1-3)Gal(b1-4)GlcNAc(b1-3)Gal(b1-4)GlcNAc(b1-2)Man(a1-6)]GalNAc
# Outline: as §1
# [29] = molecular target: Neu5Ac(a2-6)Gal(b1-4)GlcNAc(b1-3)Gal(b1-4)GlcNAc(b1-3)GalNAc
# Outline: as §1
# [30] = molecular target: Neu5Ac(a2-6)Gal(b1-4)GlcNAc(b1-3)Gal(b1-4)GlcNAc(b1-3)[Neu5Ac(a2-6)Gal(b1-4)GlcNAc(b1-3)Gal(b1-4)GlcNAc(b1-6)]GalNAc
# Outline: as §1
# [31] = molecular target: Neu5Ac(a2-6)Gal(b1-4)GlcNAc(b1-3)Gal(b1-4)GlcNAc(b1-6)[Gal(b1-3)]GalNAc
# Outline: as §1
# [32] = molecular target: Neu5Ac(a2-6)Gal(b1-4)GlcNAc(b1-3)Gal(b1-4)[Fuc(a1-3)]GlcNAc(b1-3)Gal(b1-4)[Fuc(a1-3)]GlcNAc
# Outline: as §1
# [33] = molecular target: Neu5Ac(a2-6)Gal(b1-4)GlcNAc(b1-3)GalNAc
# Outline: as §1
# [34] = molecular target: Neu5Ac(a2-6)Gal(b1-4)GlcNAc(b1-3)[Neu5Ac(a2-6)Gal(b1-4)GlcNAc(b1-6)]GalNAc
# Outline: as §1
# [35] = molecular target: Neu5Ac(a2-6)Gal(b1-4)GlcNAc(b1-6)GalNAc
# Outline: as §1
# [36] = molecular target: Neu5Ac(a2-6)Gal(b1-4)GlcNAc(b1-6)[Gal(b1-3)GlcNAc(b1-3)]Gal(b1-4)Glc
# Outline: as §1
# [37] = molecular target: Neu5Ac(a2-6)Gal(b1-4)GlcNAc(b1-6)[Gal(b1-3)]GalNAc
# Outline: as §1
# [38] = molecular target: Neu5Ac(a2-6)Gal(b1-4)GlcNAc6S
# Outline: as §1
# Neu5Ac(a2-6)GalNAc = molecular target: Neu5Ac(a2-6)GalNAc
# Outline: as §1
# [39] = molecular target: Neu5Ac(a2-6)GalNAc(b1-4)GlcNAc
# Outline: as §1
# [40] = molecular target: Neu5Ac(a2-6)GalNAc(b1-4)GlcNAc6S
# Outline: as §1
# [41] = molecular target: Neu5Ac(a2-6)GlcNAc(b1-4)GlcNAc
# Outline: as §1
binder,measurement,setting,value
B1,glycan array binding signal (z-score),Neu5Ac(a2-3)GalNAc,-0.132
same,glycan array binding signal (z-score),[1],0.076
same,glycan array binding signal (z-score),[2],-0.122
same,glycan array binding signal (z-score),[3],-0.908
same,glycan array binding signal (z-score),[4],-0.375
same,glycan array binding signal (z-score),[5],-0.193
same,glycan array binding signal (z-score),Neu5Ac(a2-6)Gal,-0.091
same,glycan array binding signal (z-score),[6],-0.037
same,glycan array binding signal (z-score),Neu5Ac(a2-6)Gal(b1-4)Glc,-1.13
same,glycan array binding signal (z-score),[7],-0.65
same,glycan array binding signal (z-score),[8],-0.932
same,glycan array binding signal (z-score),[9],1.33
same,glycan array binding signal (z-score),[10],0.321
same,glycan array binding signal (z-score),[11],0.208
same,glycan array binding signal (z-score),[12],-0.331
same,glycan array binding signal (z-score),[13],-0.647
same,glycan array binding signal (z-score),[14],0.838
same,glycan array binding signal (z-score),[15],0.062
same,glycan array binding signal (z-score),[16],1.16
same,glycan array binding signal (z-score),[17],-0.354
same,glycan array binding signal (z-score),[18],-0.856
same,glycan array binding signal (z-score),[19],-0.267
same,glycan array binding signal (z-score),[20],0.122
same,glycan array binding signal (z-score),[21],-0.481
same,glycan array binding signal (z-score),[22],0.359
same,glycan array binding signal (z-score),[23],-0.565
same,glycan array binding signal (z-score),[24],-0.615
same,glycan array binding signal (z-score),[25],-0.222
same,glycan array binding signal (z-score),[26],-0.602
same,glycan array binding signal (z-score),[27],-0.347
same,glycan array binding signal (z-score),[28],1.68
same,glycan array binding signal (z-score),[29],-0.51
same,glycan array binding signal (z-score),[30],0.842
same,glycan array binding signal (z-score),[31],0.328
same,glycan array binding signal (z-score),[32],-0.726
same,glycan array binding signal (z-score),[33],-0.715
same,glycan array binding signal (z-score),[34],-0.532
same,glycan array binding signal (z-score),[35],0.313
same,glycan array binding signal (z-score),[36],-0.718
same,glycan array binding signal (z-score),[37],-0.301
same,glycan array binding signal (z-score),[38],-0.825
same,glycan array binding signal (z-score),Neu5Ac(a2-6)GalNAc,-0.746
same,glycan array binding signal (z-score),[39],-0.376
same,glycan array binding signal (z-score),[40],-1.26
same,glycan array binding signal (z-score),[41],-0.301

# Some of the entries so far, tab-delimited.
binder	measurement	setting	value
B1	glycan array binding signal (z-score)	[13]	-0.647
same	glycan array binding signal (z-score)	[39]	-0.376
